# Measurements taken from the supplement of paper PMC3334620.
# In all, about 33,000 sequences were measured (“E-score (-0.5 to 0.5)”: median about -8e-05, highest 2% from about 0.23 on). The list shows a part of the results.
# Biological target: T1, Nrg2 (UniProt P38082)
# T1 sequence: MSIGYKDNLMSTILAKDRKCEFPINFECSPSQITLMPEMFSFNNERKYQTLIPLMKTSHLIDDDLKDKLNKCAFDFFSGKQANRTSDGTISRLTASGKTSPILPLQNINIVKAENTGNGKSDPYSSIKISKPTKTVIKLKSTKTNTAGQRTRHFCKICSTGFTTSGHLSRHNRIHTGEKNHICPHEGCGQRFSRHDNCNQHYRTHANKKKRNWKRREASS
# Assay: PBM E-score (8-mer binding enrichment) (E-score (-0.5 to 0.5)); higher = stronger / more preferred TF binding
# Conditions: protein concentration: 100 nM; construct: GST-full length
# Procedure: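 Universal 'all 10-mer' protein binding microarrays (Agilent AMADID 015681) probed with GST-tagged S. cerevisiae TFs (full-length or DBD) made by in vitro transcription/translation (PURExpress), about 100-200 nM. Bound TF was detected with fluorescent anti-GST. Each ungapped 8-mer (which stands for itself and its reverse complement) is scored by the PBM enrichment score (E-score), a modified Wilcoxon-Mann-Whitney statistic from -0.5 to +0.5, computed with the Universal PBM Analysis Suite. Scale: above 0.35 generally sequence-specific binding.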
row,Sequence,PBM E-score
1,ACAATAGC,-0.0896
2,GTGCGGCA,0.0438
3,AGGATGTC,0.0442
4,GAAACATA,0.186
5,CTGGCGGA,-0.16
6,CGATGACA,-0.0052
7,CTAGCCCA,-0.128
8,ATCAGCTA,0.0452
9,CGCTCACA,0.134
10,AGGACCTG,-0.328
11,AGTTCAGA,-0.0668
12,ATAGACGA,-0.0209
13,CCATGAAG,-0.0522
14,GCGCGCCC,0.0648
15,GCGCACTA,0.158
16,ACTATTGC,-0.0214
17,CTACAACA,-0.00372
18,AAGTGAAA,0.0897
19,CTTAATCA,0.044
20,ACGACATA,0.0628
21,AACGTTGC,0.123
22,AGCAGCGA,0.0439
23,GCAAACCC,-0.0242
24,AAACGGGT,0.0461
25,GTAAGGGA,0.0285

row,Sequence,PBM E-score
1,CTTGCTGA,-0.00707
2,CACCGCCC,-0.0826
3,CCTATAGG,0.0261
4,ACACGGAT,0.105
5,CGCGAGTC,-0.0622
6,CGAGTGTA,-0.0541
7,CTAGGACA,-0.00109
8,AAGCTTCA,0.0391
9,ACAATACT,0.241
10,TGCATAAA,0.0654
11,AAGACTCT,0.00455
12,AGGACCTC,0.0593
13,GGTTGTCA,0.0525
14,ACGGGGTA,-0.133
15,GCATTTGA,0.0928
16,ACTTCGTC,0.0846
17,AGTTCCGA,0.0484
18,CCGACTTC,-0.128
19,GATGCGAC,0.117
20,GTTTCCCA,0.118
21,ACTTGCCT,0.0426
22,CACGAAGC,-0.0323
23,AAAATTCC,0.126
24,CGCGGCAC,0.00895
25,GTGGCGAA,0.0352

# Taken from above:
# PBM E-score with ATCAGCTA is entered as 0.0452
# PBM E-score with GCAAACCC is entered as -0.0242
# PBM E-score with GCGCGCCC is entered as 0.0648
# PBM E-score with CTAGCCCA is entered as -0.128

# More results follow:

row,Sequence,PBM E-score
1,GAACAGCA,0.108
2,ACAGTCGT,-0.15
3,CCGAGGAC,0.00443
4,GAAACGTA,0.0595
5,GCTCAACA,-0.0542
6,AAGCGACT,-0.0729
7,ATGACAAC,0.239
8,GGGGGAGA,-0.285
9,ACACCTTC,0.115
10,GCTAGGCA,-0.128
11,ATTCGACA,0.0685
12,AGGACGGC,-0.157
13,AGCCGCGG,-0.0419
14,CGGGTTCC,0.125
15,AACTGAAC,-0.0117
16,TACAGCAA,0.0164
17,AACCCTTA,0.235
18,AGGAAGGA,-0.261
19,CATAAAAC,0.0525
20,CCAGCTGA,0.179
21,ATATGACA,0.244
22,ATGTTGGG,-0.0766
23,CATGGCGA,0.0732
24,CTACCACA,-0.118
25,CCACTCAA,0.106

row,Sequence,PBM E-score
1,CCGCCTGC,-0.288
2,GTCGCCAA,0.0214
3,GAATTTAA,0.00891
4,TCACAACA,0.142
5,CACCAACA,0.0656
6,AGGTACAG,-0.00294
7,CATCTGTA,-0.0324
8,AGTGGCTC,-0.0453
9,AAGAACTA,0.161
10,TAGAAACA,-0.107
11,TCGAGTCA,-0.119
12,GATATTGA,-0.0137
13,CGTCTGGC,0.0181
14,CTACGCAG,-0.0528
15,GCTGTAAA,-0.247
16,ATCGCAGC,0.065
17,CCGGCAGC,-0.103
18,AGGCTCCG,0.0995
19,AAACGGGG,0.178
20,ATACACAA,-0.0689
21,GACCAGAC,-0.19
22,ACGCGGAG,-0.00644
23,CGGTCCCC,-0.0264
24,AGGAGATA,-0.00147
25,GGGCCGTA,-0.0556

row,Sequence,PBM E-score
1,CGTCTTAG,-0.327
2,ATAGCAGG,0.0203
3,CGCTGTAG,-0.152
4,AACTCAGG,0.0297
5,CGCCTTGC,-0.00451
6,AGGATTTG,-0.0317
7,TGACGTAA,-0.175
8,AAATTAGG,0.18
9,AGGACTAC,-0.266
10,ACCCAGAA,0.128
11,AATAATTC,0.206
12,ATCCCTGC,0.157
13,ATAATGAA,0.199
14,GCCTCTGA,-0.0808
15,ATTTAGGA,-0.104
16,AAGAGTCC,-0.11
17,CAGGCACC,-0.275
18,CTCGTCAG,0.126
19,ACATGCCA,0.0366
20,CCGCTCTC,-0.0686
21,TCTTGTCA,-0.0232
22,GATCACTA,0.0562
23,AACGTCCG,-0.0956
24,TAAATTTA,0.165
25,CGATAATA,0.0922

row,Sequence,PBM E-score
1,AGTCCGCA,-0.0783
2,CGTCCGTC,-0.246
3,CTTCGTCC,-0.114
4,GAGCGGTA,-0.0416
5,ACAAAAGA,0.182
6,TAAAGCGA,0.117
7,ATGGGTAC,-0.0449
8,CACGATGC,-0.101
9,AGTTTAGG,-0.288
10,AACCATCT,-0.104
11,CCCCTCGC,-0.0902
12,AATGCAGA,0.136
13,CGTTCGAA,0.162
14,GCTGATAA,0.0839
15,GGACTACA,-0.052
16,CGGAAAAC,0.0191
17,CATAGATC,0.028
18,TGGTGTAA,0.0348
19,AACTAAAA,0.0978
20,AAACTACG,0.0478
21,CACTCCCA,-0.091
22,CGCATGAG,0.0315
23,AACGTATA,0.117
24,ATTCGTCG,-0.00164
25,ATTACAAT,-0.0701

row,Sequence,PBM E-score
1,ATGGCTGG,-0.148
2,ACATCCGT,-0.0596
3,CCGGGGTC,-0.086
4,ATCAAGGC,0.00281
5,ACGCAACA,0.0741
6,GATCACCA,0.129
7,CTCAGCAC,0.0146
8,CACCAGCA,-0.0708
9,AAACGGCC,-0.053
10,CCTGGAAA,0.0778
11,CGGGTTGA,0.0125
12,TACGCGTA,0.172
13,GTGGAGAA,0.0301
14,CCTTCGCA,-0.181
15,GCTACCTA,0.00394
16,GTTCCCTA,-0.155
17,ACTACGAA,-0.0864
18,GTGATGCA,0.154
19,ATACAAAT,0.173
20,TAATAGCA,0.0115
21,ATCTTCCG,-0.0338
22,ACCGATCT,-0.001

# Reprinted at random: two records from the list
row,Sequence,PBM E-score
21,ATCTTCCG,-0.0338
4,ATCAAGGC,0.00281
